Laboratory results reported in paper PMC7819943, “Rice protein-binding microarrays: a tool to detect cis-acting elements near promoter regions in rice”.
Some of the results follow.

The chains behind the UniProt entries cited, without tags or fusion partners.
UniProt Q0JBA9, entry or part of it: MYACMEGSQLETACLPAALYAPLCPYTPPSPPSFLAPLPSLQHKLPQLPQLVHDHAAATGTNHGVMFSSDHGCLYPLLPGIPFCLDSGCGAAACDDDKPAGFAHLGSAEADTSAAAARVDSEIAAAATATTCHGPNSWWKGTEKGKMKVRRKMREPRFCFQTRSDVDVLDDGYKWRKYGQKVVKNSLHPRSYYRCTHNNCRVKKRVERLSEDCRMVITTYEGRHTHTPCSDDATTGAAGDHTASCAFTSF

target: OsWRKY34 (Oryza sativa, UniProt Q0JBA9 1-250); assay: protein-binding microarray (RPBM); PBS, 2% BSA, 51.3 ng/ul salmon testes DNA, 50 uM zinc acetate, 200 nM TF, 25 C, 1 h; high values mean tight binding; details: protein: recombinant; tags: N-terminal polyhistidine and DsRed monomer fusion (pET32a); label: CyDye5-dUTP incorporated in the synthesized complementary strand; 3' TTTTT single-stranded linker to array surface; dsDNA, one strand shown
How it was run: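 Transcription factors were each fused at the N-terminus to a polyhistidine tag plus DsRed and expressed in E. coli BL21-CodonPlus before Ni–NTA purification. Binding to a double-stranded custom Agilent array was carried out with 200 nM protein at 25 °C for 1 h in PBS, 2% BSA, salmon testes DNA and 50 µM zinc acetate. The binding signal is per-feature fluorescence intensity, in arbitrary units, on an Axon 4000B scanner.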

Row | Sequence | binding signal
1 | TATATATATATATATATATATATATAATTCTAATGTCATACGGAGTCACCTAGTGCAG | 15500 fluorescence intensity (a.u.)
2 | ACATCACGCTATATCTGCTAATCTGCTCTGCTCTGACACACGGAGTCACCTAGTGCAG | 10100 fluorescence intensity (a.u.)
3 | ATGCCACGTAAGCGCCACATTTTTTAATTTTGTTTTTGTTCGGAGTCACCTAGTGCAG | 10500 fluorescence intensity (a.u.)
4 | CCGCTGTTATTCCCTTTGTTGTTTTTTCTCAAGTAAATTTCGGAGTCACCTAGTGCAG | 13200 fluorescence intensity (a.u.)
5 | TGACGACGATCGTCGTCATGTACCCCGGCGCGATCTTGACCGGAGTCACCTAGTGCAG | 8310 fluorescence intensity (a.u.)
6 | TGTCATCTGAAAGTTATACTTCCATCTTTCATCTGTTATTCGGAGTCACCTAGTGCAG | 9030 fluorescence intensity (a.u.)
7 | CGTCACAAGAGTCGAGCCAGCACACGGCAGCAAAGTTTTTCGGAGTCACCTAGTGCAG | 8730 fluorescence intensity (a.u.)
8 | CTATCTCTTCCCAATTTCCCATCGCTATTTCCAGTCCGAGCGGAGTCACCTAGTGCAG | 8250 fluorescence intensity (a.u.)
9 | GACCTCATCTTTTCGTTTATGCTTATACTTATCAGTCAAACGGAGTCACCTAGTGCAG | 10100 fluorescence intensity (a.u.)
10 | ACCTATTTGATCCTATTTGGTTTGTTGTTATAGTTGTGACCGGAGTCACCTAGTGCAG | 10900 fluorescence intensity (a.u.)
11 | CTCTTATTTTTCTCACTTTAAATTTTTTTTTCCTTTTATTCGGAGTCACCTAGTGCAG | 8340 fluorescence intensity (a.u.)
12 | TGGCTATATACTACTCCGGATTTTGAGTTTTTCTTACAACCGGAGTCACCTAGTGCAG | 9860 fluorescence intensity (a.u.)
13 | ACAAGCTGGTTGAATGGTGCTTATTTTGTGTGTATTTCTTCGGAGTCACCTAGTGCAG | 10500 fluorescence intensity (a.u.)
14 | CTTGACTTGTTCTGTTACTCACAGCTAATTAAGCAATTTACGGAGTCACCTAGTGCAG | 9080 fluorescence intensity (a.u.)
15 | TCACGTGCACGCGCCCTCCCTCGTTGTCCCATTCTGGGCTCGGAGTCACCTAGTGCAG | 8200 fluorescence intensity (a.u.)
16 | TAACGGCTAATTTGGTTCGGGTTTTTGTGCTTGGTGGTGGCGGAGTCACCTAGTGCAG | 8700 fluorescence intensity (a.u.)
17 | GTTTCTGCCTTTCTGGTATTTGGAGCAAAACTTTTTCTGCCGGAGTCACCTAGTGCAG | 8240 fluorescence intensity (a.u.)
18 | ACTTCATCTTTGATTAGATGCTTCCTGAAGGTGCTGTTTCCGGAGTCACCTAGTGCAG | 8610 fluorescence intensity (a.u.)
19 | AGCAAGGGTCACTTCTTTGTACTATCTTGACCTATCAAGCCGGAGTCACCTAGTGCAG | 8140 fluorescence intensity (a.u.)
20 | TTCGAAATATTTGACACCGTTGACTTTTTAGCACATGTTTCGGAGTCACCTAGTGCAG | 30000 fluorescence intensity (a.u.)
21 | CCAGCGAGCAGTGTTACTCTGTTTTTCATGAAAGTACTTTCGGAGTCACCTAGTGCAG | 9010 fluorescence intensity (a.u.)

Row | Sequence | binding signal
22 | CGTGGCACCTCACCAGCTCTCACCCTGCTATCTCCATCTCCGGAGTCACCTAGTGCAG | 9380 fluorescence intensity (a.u.)
23 | AACTCAATTCCTGCGTTTCCGTGTCCAACGTTTCACCGTCCGGAGTCACCTAGTGCAG | 8780 fluorescence intensity (a.u.)
24 | TAATGTCCCTATTTTGTTATAGTGTTCCTCCAATAATCTGCGGAGTCACCTAGTGCAG | 8290 fluorescence intensity (a.u.)
25 | CTATTTTTTAACTGGTTCTCCACTATTATGTATGCAGTTTCGGAGTCACCTAGTGCAG | 8120 fluorescence intensity (a.u.)
26 | CGTGTGCCACCCGCTTGCCCCTTCACCGCGCCACACGTACCGGAGTCACCTAGTGCAG | 8440 fluorescence intensity (a.u.)
27 | ACTCCATTTGCTACATGCACTTGTCACGCCACTACTACTCCGGAGTCACCTAGTGCAG | 12000 fluorescence intensity (a.u.)
28 | ATCTATCTACTCCTGTTCTTTCGGAGCGACGTCCTCACCACGGAGTCACCTAGTGCAG | 10500 fluorescence intensity (a.u.)
29 | ACTCGACTCGACTCGATTCCGCCCACTTGTATATCTCCCGCGGAGTCACCTAGTGCAG | 8730 fluorescence intensity (a.u.)
30 | TTATATGGCCATATATCCCGTCCGTTCACAATATATCTCACGGAGTCACCTAGTGCAG | 8510 fluorescence intensity (a.u.)
31 | GCCCGCTGCTCTGCTCTCTCATCTTTTATCTCACTAAAATCGGAGTCACCTAGTGCAG | 8960 fluorescence intensity (a.u.)
32 | ACATACACACACCACCACCAACATAGCTTCTTTTGTCACTCGGAGTCACCTAGTGCAG | 11000 fluorescence intensity (a.u.)
33 | TTCCTGTTCCTGCAAGAAAACGCTCATCCTCTTGCTTTTTCGGAGTCACCTAGTGCAG | 9650 fluorescence intensity (a.u.)
34 | ATATAATGTAAGTATGCCACTGTCTCGCGTCGTCACTGAGCGGAGTCACCTAGTGCAG | 10200 fluorescence intensity (a.u.)
35 | CCTTCGTGCTGCCTTCAGTTGGGTCTACTCCACTTGCCACCGGAGTCACCTAGTGCAG | 8380 fluorescence intensity (a.u.)
36 | ACTTTAATTTTGGTCAGCTCCCGTACATGTAGTTAACTTGCGGAGTCACCTAGTGCAG | 8770 fluorescence intensity (a.u.)
37 | CTACTTTTGCAAAATGCTTCCTTTTTGCCTCAGTATCATTCGGAGTCACCTAGTGCAG | 9030 fluorescence intensity (a.u.)
38 | AAATGGATTTTGTCCAGCCGCACAGCCTGACGGTATCACTCGGAGTCACCTAGTGCAG | 8640 fluorescence intensity (a.u.)
39 | GTAAACTGATTTTTTCCCTTTTTCTAATTCGTTATTTTTTCGGAGTCACCTAGTGCAG | 10000 fluorescence intensity (a.u.)
40 | GGTCAAATATTTTTTAAAAAGTCAACGGCGTCAAATATTTCGGAGTCACCTAGTGCAG | 11000 fluorescence intensity (a.u.)
41 | TCCTTTTCTTAGTTTTTTTACCCTGATTTGGTTACTTCACCGGAGTCACCTAGTGCAG | 10700 fluorescence intensity (a.u.)
42 | TAGGGCATAACAGTATCACTTTTTTCGGTCACGTATAGCTCGGAGTCACCTAGTGCAG | 8400 fluorescence intensity (a.u.)

3 entries from above, as a markdown table:

| Row | Sequence | binding signal |
| --- | --- | --- |
| 31 | GCCCGCTGCTCTGCTCTCTCATCTTTTATCTCACTAAAATCGGAGTCACCTAGTGCAG | 8960 fluorescence intensity (a.u.) |
| 32 | ACATACACACACCACCACCAACATAGCTTCTTTTGTCACTCGGAGTCACCTAGTGCAG | 11000 fluorescence intensity (a.u.) |
| 33 | TTCCTGTTCCTGCAAGAAAACGCTCATCCTCTTGCTTTTTCGGAGTCACCTAGTGCAG | 9650 fluorescence intensity (a.u.) |
